These are yes or no findings as the source states them, for the method shown. Binding seen in cells or lysates may run through a third protein. Some entries that bind do so weakly or less than the wild type.

Sequences of proteins named here, by UniProt entry; tags and fusion partners are left off.
UniProt P18887: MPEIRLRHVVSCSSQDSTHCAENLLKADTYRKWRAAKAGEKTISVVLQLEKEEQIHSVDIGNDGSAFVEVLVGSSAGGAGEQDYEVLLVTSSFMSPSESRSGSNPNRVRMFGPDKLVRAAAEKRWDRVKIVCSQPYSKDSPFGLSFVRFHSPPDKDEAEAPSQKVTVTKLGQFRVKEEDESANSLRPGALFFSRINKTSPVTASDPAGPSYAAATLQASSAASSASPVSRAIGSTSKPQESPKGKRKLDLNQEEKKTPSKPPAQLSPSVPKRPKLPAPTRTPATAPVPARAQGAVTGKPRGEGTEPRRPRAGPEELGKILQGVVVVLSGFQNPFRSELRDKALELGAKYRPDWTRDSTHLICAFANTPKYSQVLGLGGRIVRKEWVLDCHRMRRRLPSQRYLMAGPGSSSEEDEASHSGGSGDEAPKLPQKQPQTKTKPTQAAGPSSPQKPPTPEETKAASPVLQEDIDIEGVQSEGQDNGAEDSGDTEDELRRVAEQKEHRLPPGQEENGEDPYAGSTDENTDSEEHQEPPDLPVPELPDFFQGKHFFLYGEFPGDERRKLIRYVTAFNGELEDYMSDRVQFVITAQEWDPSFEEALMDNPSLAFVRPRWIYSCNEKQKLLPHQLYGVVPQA

The values below come from publication PMC9296550.

The target of the test is T1, Mre11 (human (endogenous in PEO1)) (UniProt P49959).
T1 sequence: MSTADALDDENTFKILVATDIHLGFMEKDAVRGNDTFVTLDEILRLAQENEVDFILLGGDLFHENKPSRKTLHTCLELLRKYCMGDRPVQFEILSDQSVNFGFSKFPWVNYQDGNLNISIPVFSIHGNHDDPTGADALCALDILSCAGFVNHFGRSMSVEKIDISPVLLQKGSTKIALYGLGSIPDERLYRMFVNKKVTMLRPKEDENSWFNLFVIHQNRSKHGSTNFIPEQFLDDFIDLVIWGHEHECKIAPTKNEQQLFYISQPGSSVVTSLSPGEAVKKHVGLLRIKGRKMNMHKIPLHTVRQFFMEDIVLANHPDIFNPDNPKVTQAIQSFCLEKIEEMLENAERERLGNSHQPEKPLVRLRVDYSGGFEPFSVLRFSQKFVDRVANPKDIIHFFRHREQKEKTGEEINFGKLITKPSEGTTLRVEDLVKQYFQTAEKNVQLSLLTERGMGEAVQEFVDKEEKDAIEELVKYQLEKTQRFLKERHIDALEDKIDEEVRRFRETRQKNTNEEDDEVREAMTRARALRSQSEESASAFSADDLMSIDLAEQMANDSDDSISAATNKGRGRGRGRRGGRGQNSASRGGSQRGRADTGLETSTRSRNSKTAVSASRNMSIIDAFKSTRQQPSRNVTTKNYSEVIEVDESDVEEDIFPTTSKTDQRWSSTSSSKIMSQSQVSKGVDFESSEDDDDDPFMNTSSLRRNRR
In words: co-IP; whole cell lysates of A2780, A2780cis, PEO1 and PEO4 in RIPA buffer with protease inhibitors; lysates incubated with the indicated antibodies overnight, protein A/G magnetic beads 2 h at room temperature; washed 4 times with PBS, 0.01% Tween 20; detected by blot.

Turning to “XRCC1 (X-ray repair cross-complementing gene 1) (from UniProt P18887 1-633)”, the binding entry is recorded as “binds”.

B1: LIG3 (protein, UniProt P49916 43-1009)
chain: LLHGHPLFLRRKPVLSFQGSHLRSRATYLVFLPGLHVGLCSGPCEMAEQRFCVDYAKRGTAGCKKCKEKIVKGVCRIGKVVPNPFSESGGDMKEWYHIKCMFEKLERARATTKKIEDLTELEGWEELEDNEKEQITQHIADLSSKAAGTPKKKAVVQAKLTTTGQVTSPVKGASFVTSTNPRKFSGFSAKPNNSGEAPSSPTPKRSLSSSKCDPRHKDCLLREFRKLCAMVADNPSYNTKTQIIQDFLRKGSAGDGFHGDVYLTVKLLLPGVIKTVYNLNDKQIVKLFSRIFNCNPDDMARDLEQGDVSETIRVFFEQSKSFPPAAKSLLTIQEVDEFLLRLSKLTKEDEQQQALQDIASRCTANDLKCIIRLIKHDLKMNSGAKHVLDALDPNAYEAFKASRNLQDVVERVLHNAQEVEKEPGQRRALSVQASLMTPVQPMLAEACKSVEYAMKKCPNGMFSEIKYDGERVQVHKNGDHFSYFSRSLKPVLPHKVAHFKDYIPQAFPGGHSMILDSEVLLIDNKTGKPLPFGTLGVHKKAAFQDANVCLFVFDCIYFNDVSLMDRPLCERRKFLHDNMVEIPNRIMFSEMKRVTKALDLADMITRVIQEGLEGLVLKDVKGTYEPGKRHWLKVKKDYLNEGAMADTADLVVLGAFYGQGSKGGMMSIFLMGCYDPGSQKWCTVTKCAGGHDDATLARLQNELDMVKISKDPSKIPSWLKVNKIYYPDFIVPDPKKAAVWEITGAEFSKSEAHTADGISIRFPRCTRIRDDKDWKSATNLPQLKELYQLSKEKADFTVVAGDEGSSTTGGSSEENKGPSGSAVSRKAPSKPSASTKKAEGKLSNSNSKDGNMQTAKPSAMKVGEKLATKSSPVKVGEKRKAADETLCQTKVLLDIFTGVRLYLPPSTPDFSRLRRYFVAFDGDLVQEFDMTSATHVLGSRDKNPAAQQVSPEWIWACIRKRRLVAPC
On to B1, for which the binding entry was “binds”.
